Results published in PubChem BioAssay AID2685 (National Center for Advancing Translational Sciences (NCATS), 2010).
Some of the results follow. Shown are side measurements of this screen, not its main read-out; they come without a call. The list favours compounds with an active or inconclusive main result. Words in brackets tell the shape of the fitted curve; partial curves, single points and poor fits give uncertain potencies.

Assay: qHTS Assay for Lipid Storage Modulators in Drosophila S3 Cells;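 for cell number change: cells counted by Cell Tracker Red CMTPX staining in the red channel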
Conditions: BODIPY lipid droplet fluorescence, 18-24 h; for cell number change: measured here: cell count max response, cells fed with added oleic acid
Outline: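 Laser-scanning cytometry quantifies lipid droplet accumulation (500–530 nm total intensity; droplet/cell object ratio) in oleic acid-fed (400 uM added) Drosophila S3 cells treated with a concentration series. 20 uM Triacsin C defined 100% inhibition.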

[1] = measured here: lipid fluorescence (Fed channel) AC50, cells fed with added oleic acid
[2] = measured here: cell number channel AC50, cells fed with added oleic acid

SMILES	cell number change	AC50 [1]	AC50 [2]
Cc1cc(O)c(NC(=O)c2ccco2)cc1C	-29.7%	2.91 µM [rising, partial curve]	–
CC(NC(=O)CCN1C(=O)c2ccccc2S1(=O)=O)c1ccccc1 (stereo unspecified)	13.3%	–	–
CN(C)c1ccc(/C=C(\C#N)c2ccccn2)cc1	–	14.6 µM [falling, partial curve, poor fit]	–
CCC1CCCCN1C(=O)Cn1c(C(=O)OC)cc2ccsc21 (stereo unspecified)	-29.6%	16.4 µM [falling, single point]	–
O=C(NCc1ccco1)/C(=C\c1ccc(F)cc1)NC(=O)c1ccco1	1.26%	5.17 µM [rising, partial curve]	–
CC(=O)NCc1cccc(CNC(C)=O)n1	-7.93%	25.9 µM [falling, partial curve]	–
Cc1ccccc1-c1nc(CS(=O)(=O)CC(=O)N2CCc3ccccc3C2)c(C)o1	10.4%	–	2.59 µM [rising, single point]
COC(=O)c1[nH]c2ccccc2c1NC(=O)Oc1ccccc1	-16.6%	1.16 µM [falling, full curve, poor fit]	–
CCCCC(=O)NC(c1ccccc1Cl)c1ccc2cccnc2c1O (stereo unspecified)	-24%	23.1 µM [falling, single point]	–
Cc1nc(-c2cccc(Br)c2)ccc1C(=O)O	-23.3%	–	–
Cc1ccn2c(C(=O)CSc3ccc(Cl)cc3Cl)c(C)nc2c1	19.7%	0.164 µM [rising, full curve, poor fit]	–
CCN(CC)c1ccc(/C=C2\C(=N)N3N=C(CC(=O)N4CCOCC4)SC3=NC2=O)cc1	-13.9%	23.1 µM [falling, single point]	–
COc1ccc(CCn2c(N)cc(=O)[nH]c2=O)cc1OC	-5.1%	–	–
Cc1cc(C)cc(NC(=O)C(C)N2C(=O)c3ccccc3C2=O)c1 (stereo unspecified)	-24.9%	4.11 µM [falling, single point]	–
O=[N+]([O-])c1ccc(OCC2CC(c3ccccc3)=NO2)cc1 (stereo unspecified)	31.6%	–	13 µM [rising, single point]
COc1ccc(S(=O)(=O)N2CCCc3ccccc32)cc1OC	-4.6%	1.46 µM [falling, full curve, poor fit]	–
C=CCNC(=O)c1ccc(NC(=O)CC2SC(N3CCCC3)=NC2=O)cc1 (stereo unspecified)	-1.81%	–	–
Cc1cc2c(c(=O)n1CCN(C)C)C(c1ccc(Br)cc1)C(C#N)=C(N)O2 (stereo unspecified)	16.7%	–	–
Cc1ccc(C)c(N/N=C2\CCCNC2=O)c1	–	–	0.731 µM [rising, single point]
CCOC(=O)N1CCN(C(=O)Cn2c(C)cc3ccccc3c2=O)CC1	-10.4%	–	–
O=C(c1ccc(Cn2c(=O)[nH]c3ccccc3c2=O)cc1)N1CCN(c2ccccc2)CC1	-30.4%	29.1 µM [falling, partial curve, poor fit]	18.4 µM [falling, partial curve]

SMILES	cell number change	AC50 [1]	AC50 [2]
CCc1c(O)nc(N2CCN(Cc3ccccc3)CC2)[nH]c1=O	-2.16%	32.6 µM [falling, single point]	–
Cc1cn(-c2cc(NC(=O)c3ccc(C)c(NC(=O)c4cccc(-c5cn[nH]c(=O)c5)c4)c3)cc(C(F)(F)F)c2)cn1	8.09%	18.4 µM [falling, single point]	–
O=C(NCCCn1ccnc1)c1cc2c(ccc3ccccc32)o1	–	–	6.51 µM [rising, partial curve, poor fit]
CC(C)C(NC(=O)c1ccc(C(C)(C)C)cc1)C(=O)NCCc1ccccn1 (stereo unspecified)	14.7%	3.26 µM [rising, partial curve, poor fit]	–
Cc1cccc(C(=O)OCC(=O)c2c(C)[nH]c3ccccc23)c1O	25.7%	0.82 µM [rising, full curve, poor fit]	–
Cc1onc(-c2ccccc2)c1C(=O)OCC(=O)NCc1ccc(F)cc1	–	6.51 µM [rising, single point]	–
COc1ccc(OC)c(NC(=O)c2nnn(Cc3ccc(Br)cc3F)c2N)c1	–	6.51 µM [rising, single point]	0.206 µM [rising, full curve, poor fit]
COc1ccccc1NCCC(=O)OCC(=O)Nc1cccc(S(=O)(=O)N(C)C)c1	-0.518%	32.6 µM [falling, single point]	–
COc1ccc(/C=C/C(=O)c2ccc(NS(=O)(=O)c3ccc(C)cc3)cc2)cc1O	0.246%	29.1 µM [falling, single point]	–
Cc1cccc(C)c1NC(=O)CSc1nnc(C2CCCCC2)o1	17.5%	–	–
Clc1cccc(-c2noc3ncnc(Nc4ccc5c(c4)OCO5)c23)c1	0.898%	–	–
CC(=O)N(Cc1ccccc1)c1ccccc1C(=O)O	–	16.4 µM [falling, partial curve, poor fit]	–
CCC(=O)NCCc1nc2cc(NC(=O)c3cccc([N+](=O)[O-])c3)ccc2n1C	68.3%	–	25.9 µM [rising, single point]
CC(C)OC(=O)CN1C(=O)S/C(=C/c2ccc(N3CCCCC3)o2)C1=O	16.1%	–	–
Clc1ccc(CSc2nncn2-c2ccc3c(c2)OCCO3)cc1	17.3%	20.6 µM [rising, partial curve, poor fit]	–
Cc1ccc(CNC(=O)C2CCC(CNS(=O)(=O)c3cccs3)CC2)cc1 (stereo unspecified)	141%	–	25.9 µM [rising, single point]
O=C(O)CCC(=O)N1N=C(c2ccccc2)CC1c1cccs1 (stereo unspecified)	10.9%	–	–
CCS(=O)(=O)N1Cc2ccccc2CC1C(=O)Nc1nc2c(C)cccc2s1 (stereo unspecified)	–	29.1 µM [rising, single point]	–
C=CCOc1ccc(/C(O)=C2\C(=O)C(=O)N(CCCOC)C2c2ccncc2)cc1 (stereo unspecified)	-20.1%	–	0.13 µM [falling, full curve, poor fit]
CCN1CCc2c(sc(NC(=O)c3ccc(S(=O)(=O)N(C)CC4CCCO4)cc3)c2C(N)=O)C1 (stereo unspecified)	–	3.26 µM [falling, full curve, poor fit]	–
CCOC(=O)c1ccc(NC(=O)NCc2ccccc2OC)cc1	-0.205%	–	–

SMILES	cell number change	AC50 [1]	AC50 [2]
CNC(=O)c1snnc1-c1ccccc1	-12.6%	1.3 µM [falling, partial curve]	0.411 µM [falling, full curve]
O=C1CN(C(=O)COC(=O)c2ccc(N3CCCCCC3)c([N+](=O)[O-])c2)c2ccccc2N1	7.97%	6.51 µM [falling, single point]	6.51 µM [falling, single point]
O=C(CSc1nnc(-c2ccc(Br)cc2)o1)N1CCN(C(=O)c2ccco2)CC1	-28.5%	0.326 µM [rising, partial curve, poor fit]	–
O=C(N/N=C/c1cccs1)c1ccc2ncccc2c1	–	–	0.0206 µM [rising, full curve, poor fit]
CCn1cc(C(=O)NCCC2=CCCCC2)c(=O)c2cc(S(=O)(=O)N(C)C)ccc21	-24.3%	18.4 µM [falling, single point]	–
CC12CCC(C(=O)Nc3cc(Cl)ccc3Cl)(C(Br)C1=O)C2(C)C (stereo unspecified)	31.7%	–	14.6 µM [rising, partial curve, poor fit]
CCN(C(=O)CSc1ncccn1)C1CCS(=O)(=O)C1 (stereo unspecified)	31.2%	29.1 µM [falling, single point]	29.1 µM [rising, single point]
CCN=c1scc(-c2ccccc2)n1/N=C/c1ccccn1	-3.33%	1.46 µM [rising, partial curve]	–
CCOC(=O)N1CCN(Cc2nc3c(c(=O)n(C)c(=O)n3C)n2Cc2ccccc2C)CC1	5.62%	2.91 µM [rising, full curve, poor fit]	3.26 µM [rising, single point]
Cc1noc(C)c1CSc1nnc2sc3ccccc3n12	4.91%	14.6 µM [rising, partial curve]	–
COC(CNC(=O)c1ccc2c(=O)n(Cc3ccc(Cl)cc3)c(=S)[nH]c2c1)OC	-51.9%	20.6 µM [falling, single point]	32.6 µM [falling, partial curve]
CCCn1c(NCc2ccco2)nc2c1c(=O)n(C)c(=O)n2C	-25.5%	18.4 µM [falling, single point]	–
CC1=C(C(N)=O)C(c2ccc(Br)cc2)n2nc(CCCO)nc2N1 (stereo unspecified)	-16.1%	0.164 µM [falling, full curve, poor fit]	–
CC(C)c1cc(C(N)=O)c(NC(=O)c2cccc(COc3ccc(Br)cc3)c2)s1	-8.99%	4.11 µM [rising, partial curve]	0.184 µM [rising, partial curve]
CCOc1ccc2[nH]c(=O)c(CN(Cc3ccco3)C(=O)c3cccc(F)c3)cc2c1	–	5.17 µM [rising, single point]	2.59 µM [rising, single point]
COc1ccc(-c2nn[nH]n2)cc1OC	-44.9%	–	29.1 µM [falling, single point]
COc1ccc(C2(C)NC(=O)N(CC(=O)NC3(C#N)CCCCC3)C2=O)cc1 (stereo unspecified)	17.9%	0.326 µM [rising, full curve]	–
Cc1ccc(NC(=O)Nc2ccc3c(c2)CCC3)cc1	27.5%	29.1 µM [rising, partial curve, poor fit]	–
CC(=O)NN1C(=O)c2ccccc2NC1c1ccc(N(C)C)cc1 (stereo unspecified)	14.8%	29.1 µM [rising, single point]	–
Nc1nc(-c2cccnc2)nn1C(=O)COc1ccccc1	–	–	6.51 µM [rising, single point]

Part of the list above, field by field:
CCC(=O)NCCc1nc2cc(NC(=O)c3cccc([N+](=O)[O-])c3)ccc2n1C
  cell number change: 68.3%; AC50 [2]: 25.9 µM [rising, single point]
CC(C)OC(=O)CN1C(=O)S/C(=C/c2ccc(N3CCCCC3)o2)C1=O
  cell number change: 16.1%
